Measurements from publication PMC7819943, “Rice protein-binding microarrays: a tool to detect cis-acting elements near promoter regions in rice”.
The other results are listed elsewhere or left out.

Chains of the proteins cited; added tags and fusions are not shown.
UniProt Q0JBA9, entry or part of it: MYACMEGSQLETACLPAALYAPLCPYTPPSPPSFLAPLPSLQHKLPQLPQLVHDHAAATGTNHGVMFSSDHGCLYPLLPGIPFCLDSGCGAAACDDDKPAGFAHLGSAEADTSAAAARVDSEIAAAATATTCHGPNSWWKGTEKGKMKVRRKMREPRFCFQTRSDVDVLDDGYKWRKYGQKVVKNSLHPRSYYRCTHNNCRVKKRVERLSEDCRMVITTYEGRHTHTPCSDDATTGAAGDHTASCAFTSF

target: OsWRKY34 (Oryza sativa, UniProt Q0JBA9 1-250); experiment: protein-binding microarray (RPBM); PBS, 2% BSA, 51.3 ng/ul salmon testes DNA, 50 uM zinc acetate, 200 nM TF, 25 C, 1 h; high values mean tight binding; conditions: protein: recombinant; tags: N-terminal polyhistidine and DsRed monomer fusion (pET32a); label: CyDye5-dUTP incorporated in the synthesized complementary strand; 3' TTTTT single-stranded linker to array surface; dsDNA, one strand shown
How it was run: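 In PBS with 2% BSA, salmon testes DNA and 50 µM zinc acetate, 200 nM protein was incubated on a custom Agilent array at 25 °C for 1 h and then washed off. The array had been made double-stranded by primer extension with Cy5-dUTP and blocked with 2% BSA. The proteins were transcription factors fused N-terminally to polyhistidine and DsRed, expressed in E. coli BL21-CodonPlus and purified on Ni–NTA. The binding signal is per-feature fluorescence intensity (arbitrary units) from an Axon 4000B scanner.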

Row | Sequence | binding signal
1 | CTCAGCTTACTTGATTGCCTAATGCGAACCTTGGATTTTTCGGAGTCACCTAGTGCAG | 10600 fluorescence intensity (a.u.)
2 | GTTGGGGTTCGTCGTCTTGGTCTTGGGTCTTCTTCGTCCCCGGAGTCACCTAGTGCAG | 11600 fluorescence intensity (a.u.)
3 | AAGGTGTGTTTGTAAGGAATATTTTCTTTTGGGGACCATCCGGAGTCACCTAGTGCAG | 8150 fluorescence intensity (a.u.)
4 | CGCCACGCCCTCATCTGCCCGGCCGCCTCACTGAAGAAAACGGAGTCACCTAGTGCAG | 8140 fluorescence intensity (a.u.)
5 | GGCTTCTGTTCCATGGGTGCCCCGTGCCCATGCCCGGCCACGGAGTCACCTAGTGCAG | 8530 fluorescence intensity (a.u.)
6 | TCTTAGCACACGTTTTGGTCCTGCGTTAAGCCCGCCAAATCGGAGTCACCTAGTGCAG | 9680 fluorescence intensity (a.u.)
7 | TACGACCACTATATAGGCTATCCATATTGCAATGTATTTTCGGAGTCACCTAGTGCAG | 8340 fluorescence intensity (a.u.)
8 | CAAGTACTCCGTACCCCATATTGGGGCATTTAACTATTTGCGGAGTCACCTAGTGCAG | 8290 fluorescence intensity (a.u.)
9 | CTCTAGTCAACGCGCCCACGTGGACCAGTTGTTCATCGAGCGGAGTCACCTAGTGCAG | 8090 fluorescence intensity (a.u.)
10 | TCCCTGAGCTTTTAGTTGTATTGTAGCCGTCCCCGTATAACGGAGTCACCTAGTGCAG | 8500 fluorescence intensity (a.u.)
11 | GACTCCGACCCATCCCGTCGTCCTCGTCGTCGTCCTCCTCCGGAGTCACCTAGTGCAG | 9540 fluorescence intensity (a.u.)
12 | AATCTCTAGTCGACGTAGAAGAATTCTTCTATACTTTCTGCGGAGTCACCTAGTGCAG | 9780 fluorescence intensity (a.u.)
13 | ATCGTCCTCCTTTCCGTAGCTGGCAACATCTCCGCCTCTCCGGAGTCACCTAGTGCAG | 8230 fluorescence intensity (a.u.)
14 | AAACACAAACGTTCACACAACATGCGCACACTATACCTGTCGGAGTCACCTAGTGCAG | 8120 fluorescence intensity (a.u.)
15 | ATCTAGCTTCATCTTATGACATCAACAACTTTTCTGATTGCGGAGTCACCTAGTGCAG | 10000 fluorescence intensity (a.u.)
16 | TACTCTGGCCACTTCCTTCCTTCTCCGCTGGATCGGATTCCGGAGTCACCTAGTGCAG | 8040 fluorescence intensity (a.u.)
17 | AGCGGCTCACCGAGCTGACCCATCTCAACATCTCCCCACCCGGAGTCACCTAGTGCAG | 8020 fluorescence intensity (a.u.)
18 | GAGAGTATTCTTTTTCGCCGTAGATATTACTACCGTTTCACGGAGTCACCTAGTGCAG | 9650 fluorescence intensity (a.u.)
19 | ATGTGGATGTAAAGCTGGTCGGTACAGTTCAGTTCAGACTCGGAGTCACCTAGTGCAG | 8440 fluorescence intensity (a.u.)
20 | TGGCACTCTACCACCAAAATTTGTTGTAAACATGGTATCTCGGAGTCACCTAGTGCAG | 9900 fluorescence intensity (a.u.)
21 | ACCAGTAATATCTGGTCTCACTTGTCATACACACTTTTGCCGGAGTCACCTAGTGCAG | 8450 fluorescence intensity (a.u.)

Row | Sequence | binding signal
22 | AACTTTGGTCAACGGTGGGGATTGGGACTAGACTCAGGGACGGAGTCACCTAGTGCAG | 11300 fluorescence intensity (a.u.)
23 | GACCCCGCGGATCCGGTCGCTGTCAGCCTCCTCCGCAATCCGGAGTCACCTAGTGCAG | 9900 fluorescence intensity (a.u.)
24 | TCATGTGGGGCTTTCATGCTTTAATAACGTGTGATATTGACGGAGTCACCTAGTGCAG | 8360 fluorescence intensity (a.u.)
25 | GGGTACAGGGGTGGGGACTTGGGTGTGTTGTGGTGGTTACCGGAGTCACCTAGTGCAG | 12400 fluorescence intensity (a.u.)
26 | CCAGCGTATCTTCTACTACTACTACGTATCTGCTGCATTCCGGAGTCACCTAGTGCAG | 9040 fluorescence intensity (a.u.)
27 | TCGTAATGACTCTGCTTGCTAGTTCACAGTTATCACTTGACGGAGTCACCTAGTGCAG | 8390 fluorescence intensity (a.u.)
28 | TCTCACAATCTCTTTGTTTTCTTGTAATTCCAACCACTTTCGGAGTCACCTAGTGCAG | 13300 fluorescence intensity (a.u.)
29 | ACCCGTTCTTTCTCACGCTTGTGGCGTGCATTGTCAATCACGGAGTCACCTAGTGCAG | 8380 fluorescence intensity (a.u.)
30 | CATCAACAGCCTCCAGTCTCTGCGCTCCTACTCTGCCGGACGGAGTCACCTAGTGCAG | 8950 fluorescence intensity (a.u.)
31 | CCACACGCCCACCCCGCGCCGCCGCCTCGCCGTCGCTGTCCGGAGTCACCTAGTGCAG | 10200 fluorescence intensity (a.u.)
32 | CCATATATAAACCGCGCCAACCTTGCCGTCGTCCTCGACGCGGAGTCACCTAGTGCAG | 8330 fluorescence intensity (a.u.)
33 | CAACAGCTGCAGCTGCTACGATTGTTCTCTATATTTCATTCGGAGTCACCTAGTGCAG | 8160 fluorescence intensity (a.u.)
34 | AATACTCTCCCAAGTTATTTTGTTCTTGTTCTCTGCATTCCGGAGTCACCTAGTGCAG | 12200 fluorescence intensity (a.u.)
35 | GGAAACCCTCGCGTCTTCTGTTCCGCCTCAGCGTCTCATCCGGAGTCACCTAGTGCAG | 9560 fluorescence intensity (a.u.)
36 | GATCCATCGCCTGTGTCCCCTCCGCCACTCCATCGCGCGCCGGAGTCACCTAGTGCAG | 11200 fluorescence intensity (a.u.)
37 | CACTAGCGGGCGCGGGGCGGGGTTAGCAGTGCACGTCACGCGGAGTCACCTAGTGCAG | 9460 fluorescence intensity (a.u.)
38 | GGTCAGGTGGGTTACTCGTCGCCTTCAGCCCCTGGCATGTCGGAGTCACCTAGTGCAG | 8170 fluorescence intensity (a.u.)
39 | ACCCTTGCAACGCACTTCTCACTCGTAGCTTTAGTTTTCCCGGAGTCACCTAGTGCAG | 9980 fluorescence intensity (a.u.)
40 | TCCTTGCTCGTCGTTTTCTCCTAACTAATCTAATCTCCCTCGGAGTCACCTAGTGCAG | 8400 fluorescence intensity (a.u.)
41 | CGTCGTTTCGTTTAGCATATGTTGTCACGGTACATGTATGCGGAGTCACCTAGTGCAG | 10500 fluorescence intensity (a.u.)
42 | GTAATTCTGTGTTGGTTCTTACATTCTGTCTTCTTTGAAACGGAGTCACCTAGTGCAG | 12300 fluorescence intensity (a.u.)

Single values from the entries so far:
Entry for ACCCGTTCTTTCTCACGCTTGTGGCGTGCATTGTCAATCACGGAGTCACCTAGTGCAG under binding signal: 8380 fluorescence intensity (a.u.)
Entry for GGTCAGGTGGGTTACTCGTCGCCTTCAGCCCCTGGCATGTCGGAGTCACCTAGTGCAG under binding signal: 8170 fluorescence intensity (a.u.)
Entry for GACCCCGCGGATCCGGTCGCTGTCAGCCTCCTCCGCAATCCGGAGTCACCTAGTGCAG under binding signal: 9900 fluorescence intensity (a.u.)
